Reference: patent publication US20250283871A1, “COMPOSITIONS AND METHODS FOR MODULATING THE INTERACTION BETWEEN SS18-SSX FUSION ONCOPROTEIN AND NUCLEOSOMES” (Dana-Farber Cancer Institute, Inc., priority 2020, published 2025)

B1: EXD2 (protein, UniProt Q9NVH0 1-621, looked up)
Exonuclease 3'-5' …: MSRQNLVALTVTTLLGVAVGGFVLWKGIQRRRRSKTSPVTQQPQQKVLGSRELPPPEDDQLHSSAPRSSWKERILKAKVVTVSQEAEWDQIEPLLRSELEDFPVLGIDCEWVNLEGKASPLSLLQMASPSGLCVLVRLPKLICGGKTLPRTLLDILADGTILKVGVGCSEDASKLLQDYGLVVRGCLDLRYLAMRQRNNLLCNGLSLKSLAETVLNFPLDKSLLLRCSNWDAETLTEDQVIYAARDAQISVALFLHLLGYPFSRNSPGEKNDDHSSWRKVLEKCQGVVDIPFRSKGMSRLGEEVNGEATESQQKPRNKKSKMDGMVPGNHQGRDPRKHKRKPLGVGYSARKSPLYDNCFLHAPDGQPLCTCDRRKAQWYLDKGIGELVSEEPFVVKLRFEPAGRPESPGDYYLMVKENLCVVCGKRDSYIRKNVIPHEYRKHFPIEMKDHNSHDVLLLCTSCHAISNYYDNHLKQQLAKEFQAPIGSEEGLRLLEDPERRQVRSGARALLNAESLPTQRKEELLQALREFYNTDVVTEEMLQEAASLETRISNENYVPHGLKVVQCHSQGGLRSLMQLESRWRQHFLDSMQPKHLPQQWSVDHNHQKLLRKFGEDLPIQLS
B2: TFB2M (protein, UniProt Q9H5Q4 20-396, looked up)
Dimethyladenosine transferase …: AGRFCILGSEAATRKHLPARNHCGLSDSSPQLWPEPDFRNPPRKASKASLDFKRYVTDRRLAETLAQIYLGKPSRPPHLLLECNPGPGILTQALLEAGAKVVALESDKTFIPHLESLGKNLDGKLRVIHCDFFKLDPRSGGVIKPPAMSSRGLFKNLGIEAVPWTADIPLKVVGMFPSRGEKRALWKLAYDLYSCTSIYKFGRIEVNMFIGEKEFQKLMADPGNPDLYHVLSVIWQLACEIKVLHMEPWSSFDIYTRKGPLENPKRRELLDQLQQKLYLIQMIPRQNLFTKNLTPMNYNIFFHLLKHCFGRRSATVIDHLRSLTPLDARDILMQIGKQEDEKVVNMHPQDFKTLFETIERSKDCAYKWLYDETLEDR
B3: IARS (protein, UniProt P41252 1-1262, looked up)
Isoleucine--tRNA ligase, …: MLQQVPENINFPAEEEKILEFWTEFNCFQECLKQSKHKPKFTFYDGPPFATGLPHYGHILAGTIKDIVTRYAHQSGFHVDRRFGWDCHGLPVEYEIDKTLGIRGPEDVAKMGITEYNNQCRAIVMRYSAEWKSTVSRLGRWIDFDNDYKTLYPQFMESVWWVFKQLYDKGLVYRGVKVMPFSTACNTPLSNFESHQNYKDVQDPSVFVTFPLEEDETVSLVAWTTTPWTLPSNLAVCVNPEMQYVKIKDVARGRLLILMEARLSALYKLESDYEILERFPGAYLKGKKYRPLFDYFLKCKENGAFTVLVDNYVKEEEGTGVVHQAPYFGAEDYRVCMDFNIIRKDSLPVCPVDASGCFTTEVTDFAGQYVKDADKSIIRTLKEQGRLLVATTFTHSYPFCWRSDTPLIYKAVPSWFVRVENMVDQLLRNNDLCYWVPELVREKRFGNWLKDARDWTISRNRYWGTPIPLWVSDDFEEVVCIGSVAELEELSGAKISDLHRESVDHLTIPSRCGKGSLHRISEVFDCWFESGSMPYAQVHYPFENKREFEDAFPADFIAEGIDQTRGWFYTLLVLATALFGQPPFKNVIVNGLVLASDGQKMSKRKKNYPDPVSIIQKYGADALRLYLINSPVVRAENLRFKEEGVRDVLKDVLLPWYNAYRFLIQNVLRLQKEEEIEFLYNENTVRESPNITDRWILSFMQSLIGFFETEMAAYRLYTVVPRLVKFVDILTNWYVRMNRRRLKGENGMEDCVMALETLFSVLLSLCRLMAPYTPFLTELMYQNLKVLIDPVSVQDKDTLSIHYLMLPRVREELIDKKTESAVSQMQSVIELGRVIRDRKTIPIKYPLKEIVVIHQDPEALKDIKSLEKYIIEELNVRKVTLSTDKNKYGIRLRAEPDHMVLGKRLKGAFKAVMTSIKQLSSEELEQFQKTGTIVVEGHELHDEDIRLMYTFDQATGGTAQFEAHSDAQALVLLDVTPDQSMVDEGMAREVINRIQKLRKKCNLVPTDEITVYYKAKSEGTYLNSVIESHTEFIFTTIKAPLKPYPVSPSDKVLIQEKTQLKGSELEITLTRGSSLPGPACAYVNLNICANGSEQGGVLLLENPKGDNRLDLLKLKSVVTSIFGVKNTELAVFHDETEIQNQTDLLSLSGKTLCVTAGSAPSLINSSSTLLCQYINLQLLNAKPQECLMGTVGTLLLENPLGQNGLTHQGLLYEAAKVFGLRSRKLKLFLNETQTQEITEDIPVKTLNMKTVYVSVLPTTADF
B4: BDH1 (protein, UniProt Q02338 47-343, looked up)
D-beta-hydroxybutyrate …: ASAAEPVGSKAVLVTGCDSGFGFSLAKHLHSKGFLVFAGCLMKDKGHDGVKELDSLNSDRLRTVQLNVCSSEEVEKVVEIVRSSLKDPEKGMWGLVNNAGISTFGEVEFTSLETYKQVAEVNLWGTVRMTKSFLPLIRRAKGRVVNISSMLGRMANPARSPYCITKFGVEAFSDCLRYEMYPLGVKVSVVEPGNFIAATSLYSPESIQAIAKKMWEELPEVVRKDYGKKYFDEKIAKMETYCSSGSTDTSPVIDAVTHALTATTPYTRYHPMDYYWWLRMQIMTHLPGAISDMIYIR
B5: MFN1 (protein, UniProt Q8IWA4 1-741, looked up)
Mitofusin-1: MAEPVSPLKHFVLAKKAITAIFDQLLEFVTEGSHFVEATYKNPELDRIATEDDLVEMQGYKDKLSIIGEVLSRRHMKVAFFGRTSSGKSSVINAMLWDKVLPSGIGHITNCFLSVEGTDGDKAYLMTEGSDEKKSVKTVNQLAHALHMDKDLKAGCLVRVFWPKAKCALLRDDLVLVDSPGTDVTTELDSWIDKFCLDADVFVLVANSESTLMNTEKHFFHKVNERLSKPNIFILNNRWDASASEPEYMEDVRRQHMERCLHFLVEELKVVNALEAQNRIFFVSAKEVLSARKQKAQGMPESGVALAEGFHARLQEFQNFEQIFEECISQSAVKTKFEQHTIRAKQILATVKNIMDSVNLAAEDKRHYSVEEREDQIDRLDFIRNQMNLLTLDVKKKIKEVTEEVANKVSCAMTDEICRLSVLVDEFCSEFHPNPDVLKIYKSELNKHIEDGMGRNLADRCTDEVNALVLQTQQEIIENLKPLLPAGIQDKLHTLIPCKKFDLSYNLNYHKLCSDFQEDIVFRFSLGWSSLVHRFLGPRNAQRVLLGLSEPIFQLPRSLASTPTAPTTPATPDNASQEELMITLVTGLASVTSRTSMGIIIVGGVIWKTIGWKLLSVSLTMYGALYLYERLSWTTHAKERAFKQQFVNYATEKLRMIVSSTSANCSHQVKQQIATTFARLCQQVDITQKQLEEEIARLPKEIDQLEKIQNNSKLLRNKAVQLENELENFTKQFLPSSNEES
B6: RDH13 (protein, UniProt Q8NBN7 2-331, looked up)
Retinol dehydrogenase 13: SRYLLPLSALGTVAGAAVLLKDYVTGGACPSKATIPGKTVIVTGANTGIGKQTALELARRGGNIILACRDMEKCEAAAKDIRGETLNHHVNARHLDLASLKSIREFAAKIIEEEERVDILINNAGVMRCPHWTTEDGFEMQFGVNHLGHFLLTNLLLDKLKASAPSRIINLSSLAHVAGHIDFDDLNWQTRKYNTKAAYCQSKLAIVLFTKELSRRLQGSGVTVNALHPGVARTELGRHTGIHGSTFSSTTLGPIFWLLVKSPELAAQPSTYLAVAEELADVSGKYFDGLKQKAPAPEAEDEEVARRLWAESARLVGLEAPSVREQPLPR
B7: TMED5 (protein, UniProt Q9Y3A6 28-229, looked up)
Transmembrane emp24 …: FTPSLDSDFTFTLPAGQKECFYQPMPLKASLEIEYQVLDGAGLDIDFHLASPEGKTLVFEQRKSDGVHTVETEVGDYMFCFDNTFSTISEKVIFFELILDNMGEQAQEQEDWKKYITGTDILDMKLEDILESINSIKSRLSKSGHIQTLLRAFEARDRNIQESNFDRVNFWSMVNLVVMVVVSAIQVYMLKSLFEDKRKSRT

The molecules below were run on BAF complex subunits and histone proteins (assay: Mass spectrometry proteomics of purified HA-SS18 WT and HA-SS18-SSX1 complexes (Tables 5A-5E)). Conditions: HA-SS18SSX1_NE_peptides: protein co-purified with HA-SS18-SSX1 BAF complexes from soluble nuclear extract (NE), HEK-293T cells.
Set-up: species or system human
In the case of B1, the “Total (peptides)” value is reported as 1 and the “Unique (peptides)” value is reported as 1. In the case of B2, the “Total (peptides)” value is reported as 1 and the “Unique (peptides)” value is reported as 1. With B3 the “Total (peptides)” value was 1 and the “Unique (peptides)” value was 1. For B4, the “Total (peptides)” value was 1 and the “Unique (peptides)” value was 1. For B5, the “Total (peptides)” value was 1 and the “Unique (peptides)” value was 1. With B6 the “Total (peptides)” value was 1 and the “Unique (peptides)” value was 1. With B7 the “Total (peptides)” value was 1 and the “Unique (peptides)” value was 1.

Same assay, conditions: HA-SS18WT_NE_peptides: proteins co-purified with HA-SS18 WT from nuclear extract (NE), HEK-293T
B1 was tested, and the “Total (peptides)” value was 2 and the “Unique (peptides)” value was 2. For B2, the “Total (peptides)” value was 1 and the “Unique (peptides)” value was 1. B3 was tested, and the “Total (peptides)” value was 2 and the “Unique (peptides)” value was 1. In the case of B4, the “Total (peptides)” value is reported as 1 and the “Unique (peptides)” value is reported as 1. B5 was tested, and the “Total (peptides)” value was 1 and the “Unique (peptides)” value was 1. For B6, the “Total (peptides)” value was 1 and the “Unique (peptides)” value was 1. B7 was tested, and the “Total (peptides)” value was 1 and the “Unique (peptides)” value was 1.
